This is an account of results in patent publication US9540424B2 (BRISTOL-MYERS SQUIBB COMPANY, priority 2010, dated 2017).

Plain letter strings leave the end groups untold.

The nature of data set [1]: peptide made by a vendor (peptide synthesis; Fmoc-protected PAL-PEG resin (0.34 mmol/g); HCTU/DIEA). The conditions noted are these: whole synthesis, analytical HPLC, scale of the general procedure 0.25 mmol.
Data set [2] can be described thus: general procedure: Fmoc solid-phase peptide synthesis; Fmoc-protected PAL-PEG resin (0.34 mmol/g); HCTU/DIEA. The conditions noted are these: analytical HPLC.
The mark [3] stands for this setting: oxidative folding step, one disulfide bridge, sequence written open.
[4] abbreviates: whole synthesis, scale of the general procedure 0.25 mmol.

With “YLNNGLGAPAPYPDPLEPH REVCELNPNCDELADHIGFQDAYKRIYGTTV”, the “purity (crude or final not stated)” value in data set [1] (one disulfide bridge, sequence written open) worked out at 96%. On to “Mal-GSGSGSGSGS-KCNTATCATQRLANFLVRSSNNLGPVLPPTNVGSNTY-NH2”, for which the “final HPLC purity” value in data set [2] (whole synthesis, scale of the general procedure 0.25 mmol, one disulfide bridge, sequence written open) is “at least 98%”. For the substance “YLYQWLGAPVPYPDPLEPRRE VCELNPDCDELADHIGFQEAYRRFYGPV”, the “final HPLC purity” value in data set [2] (setting [3]) is listed as 99%. Regarding “Mal-GSGSGSGSGS-APLEPMYPGDYATPEQMAQYETQLRRYINTLTRPRY-NH2”, the “purity (crude or final not stated)” value in data set [1] is listed as 90%. Regarding “YLGASVPSPDPLEPT REQCELNPACDELSDQYGLKTAYKRIYGITI”, in data set [2] (setting [3]), the “final HPLC purity” value stood at 98%.

On to “Mal-Ahx-APLEPMYPGDYATPEQMAQYETQLRRYINTLTRPRY-NH2”, for which, in data set [2] (setting [4]), the “final HPLC purity” value is “at least 99%”. For “Mal-PEG20-APLEPMYPGDYATPEQMAQYETQLRRYINTLTRPRY-NH2”, in data set [2] (setting [4]), the “final HPLC purity” value is “at least 91%”.
